PubChem BioAssay AID504764, Drosophila RNAi Screening Center | 2011

- Purpose: 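Knock-downs that raise or lower a Notch target reporter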 (primary screen)
- Cells: Drosophila Kc167 cells
- Reagents: long dsRNA against Drosophila genes
- Timing: about 5 days (4 days dsRNA, then 24 h after transfection)
- Treatment: transfection of constitutively active membrane-tethered Notch lacking the extracellular domain, read 24 h later
- Measured: 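Light from a Notch-responsive E(spl)m3 luciferase reporter under active Notch, with control-promoter and no-Notch reporter wells to normalise; raw counts from paired wells a and b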
- Scale: induced reporter light, run 1, well a and induced reporter light, run 1, well b: higher = more light from the Notch target reporter with active Notch; control promoter light, run 1, well a and control promoter light, run 1, well b: higher = more light from the viral control promoter (cell number, transfection, viability); uninduced reporter light, run 1, well a: higher = more light from the Notch target reporter without active Notch
- Rule for the call: 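Wells with low control signal or poorly matching duplicates excluded; duplicates averaged; per source plate, z beyond ±2 for induced/control log2 ratio or beyond ±1.8 for induced/uninduced marks a hit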
- Calls: active = modifier hit (raised or lowered Notch signal); inactive = not a hit
The screen tested about 22,000 reagents; shown is a random part of those with a known target gene and a result. Over the whole deposit, 403 (1.9%) are marked active. 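Unnormalised raw counts per well; ratio z-scores behind the hit calls and whether each hit raises or lowers signal are not deposited.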 Reagents against one gene are numbered here. Names joined by + are all predicted targets of the reagent. No sequences are given here. Not given: the amount of reagent.

| Gene | reagent no. | induced reporter light, run 1, well a | induced reporter light, run 1, well b | control promoter light, run 1, well a | control promoter light, run 1, well b | uninduced reporter light, run 1, well a | Outcome |
| --- | --- | --- | --- | --- | --- | --- | --- |
| Or74a (GeneID 39929) | 1 | 1.34e5 | 1.27e5 | 2.33e5 | 2.03e5 | 5670 | active |
| CG32551 (GeneID 318085) | 1 | 1.02e5 | 95190 | 1.14e5 | 1.08e5 | 8260 | inactive |
| HLH54F (GeneID 37027) | 1 | 1.46e5 | 92770 | 1.06e5 | 1.00e5 | 8125 | inactive |
| ths (GeneID 36258) | 1 | 16690 | 13115 | 17495 | 12505 | 5328 | inactive |
| Dr (GeneID 45285) | 1 | 2.23e5 | 2.45e5 | 2.43e5 | 2.72e5 | 15695 | inactive |
| Prp40 (GeneID 33513) | 1 | 99410 | 1.20e5 | 1.17e5 | 1.34e5 | 11590 | inactive |
| png (GeneID 31084) | 1 | 1.37e5 | 1.21e5 | 2.36e5 | 2.48e5 | 9090 | inactive |
| wit (GeneID 44096) | 1 | 1.81e5 | 1.09e5 | 1.03e5 | 41225 | 10925 | inactive |
| Flo2 (GeneID 32425) | 1 | 1.03e5 | 83520 | 78470 | 80775 | 7510 | inactive |
| Flo2 (GeneID 32425) | 2 | 65935 | 76145 | 60980 | 57310 | 9900 | inactive |
| EndoU (GeneID 41931) | 1 | 3.13e5 | 2.90e5 | 4.37e5 | 4.61e5 | 21125 | inactive |
| Dnaaf5 (GeneID 318680) | 1 | 75770 | 92870 | 1.02e5 | 1.22e5 | 7745 | inactive |
| Yod1 (GeneID 38603) | 1 | 1.65e5 | 1.59e5 | 1.41e5 | 1.05e5 | 14810 | inactive |
| CG14253 (GeneID 43243) | 1 | 1.81e5 | 1.47e5 | 2.26e5 | 1.99e5 | 15088 | inactive |
| Zip71B (GeneID 39626) | 1 | 1.60e5 | 2.22e5 | 2.90e5 | 2.14e5 | 9120 | inactive |
| beat-VII (GeneID 43213) | 1 | 1.63e5 | 1.98e5 | 1.93e5 | 1.91e5 | 16600 | inactive |
| beat-VII (GeneID 43213) | 2 | 1.45e5 | 1.08e5 | 1.75e5 | 1.24e5 | 11445 | inactive |
| beat-VII (GeneID 43213) | 3 | 1.27e5 | 1.38e5 | 1.53e5 | 1.54e5 | 12560 | inactive |
| Rcd-1r + CG13102 | 1 | 1.05e5 | 1.17e5 | 70085 | 72560 | 14610 | inactive |
| CG31633 (GeneID 33931) | 1 | 1.29e5 | 1.10e5 | 1.37e5 | 1.20e5 | 10800 | inactive |
| CG30371 (GeneID 35806) | 1 | 1.21e5 | 1.38e5 | 1.38e5 | 1.32e5 | 11635 | inactive |
| CAH13 (GeneID 36126) | 1 | 1.92e5 | 1.83e5 | 2.26e5 | 2.16e5 | 16320 | inactive |
| IntS8 (GeneID 36886) | 1 | 57550 | 58920 | 51650 | 50815 | 8400 | inactive |
| Stam (GeneID 34505) | 1 | 2.23e5 | 2.77e5 | 2.07e5 | 1.59e5 | 19378 | inactive |
| CG17666 (GeneID 39452) | 1 | 1.96e5 | 1.56e5 | 2.54e5 | 2.11e5 | 8255 | inactive |
| CG34457 (GeneID 5740661) | 1 | 1.01e5 | 87615 | 94230 | 1.28e5 | 10325 | inactive |
| VhaPPA1-1 (GeneID 45247) | 1 | 1.13e5 | 1.50e5 | 91925 | 93825 | 8815 | inactive |
| e(y)3 (GeneID 32965) | 1 | 1.53e5 | 2.11e5 | 1.38e5 | 1.00e5 | 12765 | inactive |
| CG14160 (GeneID 39177) | 1 | 1.59e5 | 1.58e5 | 1.80e5 | 1.83e5 | 9750 | inactive |
| Trf5 (GeneID 33454) | 1 | 1.62e5 | 1.45e5 | 1.37e5 | 1.24e5 | 11025 | inactive |
| Syx17 (GeneID 38541) | 1 | 1.78e5 | 1.33e5 | 88190 | 53180 | 13425 | inactive |
| Cyp6a16Psi (retired record) (GeneID 3772661) | 1 | 1.31e5 | 1.31e5 | 1.37e5 | 1.02e5 | 9015 | inactive |
| ntc (GeneID 38443) | 1 | 1.50e5 | 1.21e5 | 1.00e5 | 40060 | 10795 | inactive |
| CLIP-190 (GeneID 35042) | 1 | 3.22e5 | 2.55e5 | 2.64e5 | 3.07e5 | 20345 | inactive |
| f (GeneID 32718) | 1 | 1.99e5 | 1.51e5 | 2.38e5 | 2.40e5 | 13905 | inactive |
| f (GeneID 32718) | 2 | 86390 | 1.09e5 | 1.69e5 | 1.65e5 | 13185 | inactive |
| f (GeneID 32718) | 3 | 78510 | 55465 | 67450 | 61130 | 10160 | inactive |
| CG18558 (GeneID 33482) | 1 | 1.04e5 | 1.25e5 | 1.01e5 | 76500 | 7880 | inactive |
| CG18558 (GeneID 33482) | 2 | – | – | – | – | – | inactive |
| sty (GeneID 38424) | 1 | 1.13e5 | 1.29e5 | 2.06e5 | 1.78e5 | 4540 | inactive |
| CG7518 (GeneID 41599) | 1 | 1.29e5 | 1.08e5 | 81640 | 92365 | 9705 | inactive |
| CG7728 (GeneID 39904) | 1 | 1.13e5 | 1.27e5 | 67435 | 78530 | 9440 | inactive |
| Brd7-9 (GeneID 34062) | 1 | 2.89e5 | 2.40e5 | 3.12e5 | 3.30e5 | 22735 | inactive |
| CG12945 (GeneID 41204) | 1 | 44135 | 46685 | 41480 | 38785 | 2210 | inactive |
| Msh6 (GeneID 39654) | 1 | 2.08e5 | 1.72e5 | 2.36e5 | 2.51e5 | 13375 | inactive |
| CG3092 (GeneID 37682) | 1 | 1.69e5 | 1.80e5 | 1.89e5 | 1.84e5 | 14685 | inactive |
| CG5681 (GeneID 35074) | 1 | 1.49e5 | 1.55e5 | 1.61e5 | 1.51e5 | 12800 | inactive |
| CG7970 (GeneID 38205) | 1 | 1.20e5 | 1.21e5 | 1.97e5 | 1.63e5 | 8855 | inactive |
| CG32249 (GeneID 317939) | 1 | 2.28e5 | 2.25e5 | 1.88e5 | 1.77e5 | 16465 | inactive |
| CG32249 (GeneID 317939) | 2 | 2.21e5 | 1.96e5 | 2.67e5 | 2.01e5 | 12080 | inactive |

Called active (from the list above):
| Gene | reagent no. | induced reporter light, run 1, well a | induced reporter light, run 1, well b | control promoter light, run 1, well a | control promoter light, run 1, well b | uninduced reporter light, run 1, well a | Outcome |
| --- | --- | --- | --- | --- | --- | --- | --- |
| Or74a (GeneID 39929) | 1 | 1.34e5 | 1.27e5 | 2.33e5 | 2.03e5 | 5670 | active |
